Data: paper PMC12040169 (PLOS Biology, 2025)
The other results are listed elsewhere or left out.

These compounds were tested on T1, CTL2-GFP (C. trachomatis L2/434/Bu, GFP-expressing). Settings: bulk GFP, single well; 28.5 h, 10 µM; inhibitor.
T1 construct: L2/434/Bu, GFP-expressing
Set-up: species or system HeLa; Intracellular C. trachomatis growth in HeLa cells, bulk GFP fluorescence relative to DMSO

SMILES	% of control remaining
Fc1ccc(C2C=C(c3ccc(F)cc3F)Nc3ncnn32)cc1 (stereo not drawn) [CBK288095]	137.624%
O=C(O)CCc1ccc(NS(=O)(=O)c2ccc(N3CCCC3=O)cc2)cc1 [CBK299788]	111.102%
Cc1ccc(S(=O)(=O)NCc2ccc(-c3nn(C)cc3-c3ccncc3C)cc2)cc1 [CBK285632]	121.832%
CC(C)CN1C[C@H]2N(C)C(=O)c3ccccc3C(=O)[C@@]2(C)C1 [CBK283477]	100.163%
Cc1cc(Cl)ccc1Nc1nnc(C)c(=O)[nH]1 [CBK287922]	118.408%
Cc1cc(CCCC(=O)NCc2ccc(-c3ccc(C(N)=O)c(C)n3)cc2)ccc1F [CBK286016]	130.639%
Cc1c(C(=O)N2CCCC(c3cnccn3)C2)oc2c(F)cccc12 (stereo not drawn) [CBK285302]	100.212%
O=S(=O)(NCCc1ccccc1)c1cccc2nsnc12 [CBK261128]	109.429%
CC[C@H](C)[C@H](NC(N)=O)C(=O)Nc1ccc(F)c([N+](=O)[O-])c1 [CBK297489]	112.064%
CCC(=O)N1CCC(c2nc(Cc3cccs3)no2)C1 (stereo not drawn) [CBK282968]	106.673%
Cc1cccc(NC(=S)N/N=C/c2sccc2C)c1 [CBK022228]	104.905%
Cc1nc(CC(=O)N2CCOC(c3ccc(F)cc3)C2)cs1 (stereo not drawn) [CBK305759]	110.085%
Cc1cc(C)cc(NC(=O)Cc2cc(=O)[nH]c(SCc3ccccc3)n2)c1 [CBK287842]	132.658%
COc1ccc(N(C(C)C(=O)Nc2ccc(Cl)c(Cl)c2)S(C)(=O)=O)cc1 (stereo not drawn) [CBK266872]	101.253%
CN1CCN(C(c2cccs2)c2nnnn2C(C)(C)C)CC1 (stereo not drawn) [CBK141702]	114.697%
O=c1[nH]nc2cc(SCc3ccc(Cl)cc3)ncn12 [CBK300540]	137.127%
OCC1(CNc2ncc(F)c(N3CCCC3)n2)CCOCC1 [CBK306647]	45.2411%
c1ccc(CCN2CCN(c3nccnc3OCC3COc4ccccc4O3)CC2)cc1 (stereo not drawn) [CBK082794T]	112.207%
CC(=O)Nc1ccc(C(=O)N2CCCC(c3cccc(Cc4ccccc4Cl)n3)C2)cc1 (stereo not drawn) [CBK286126]	124.824%
CCN(Cc1cn2ccc(C)cc2n1)CC1CCOCC1 [CBK306680]	112.834%

SMILES	% of control remaining
Cc1nc(C2CCN(C(=O)CCc3ccno3)CC2)c2sccn12 [CBK282239]	151.894%
[N-]=[N+]=NC1C2OCC(O2)C(OCc2ccccc2)C1O (stereo not drawn) [CBK261000]	100%
CCNc1cccnc1N1CCN(CCc2cc(C)c(O)c(C)c2)CC1 [CBK024361C]	142.491%
COC(=O)c1c(NC(=O)Cn2ccc([N+](=O)[O-])n2)sc2c1CCCC2 [CBK268960]	126.664%
CC(=O)Nc1ccc(S(=O)(=O)N2CCN(C(=O)c3ccco3)CC2)cc1 [CBK068319]	141.531%
O=C(NCc1ccc(Cl)cc1)N(Cc1cccnc1)Cc1ccc2c(c1)OCO2 [CBK159449]	107.246%
Cc1cccc(C2(O)CCN(CC(O)c3ccc(F)cc3)CC2)c1 (stereo not drawn) [CBK282504]	136.631%
COc1ccc(-c2nc3cc(NC(=O)c4ccccc4Br)ccc3o2)cc1 [CBK264953]	127.722%
O=C(Cn1cnc2c(cnn2-c2ccc(F)cc2)c1=O)NCc1ccccc1 [CBK287538]	133.943%
Cn1ccc(C(=O)N2CCCC(c3cc4ncccc4[nH]3)C2)n1 (stereo not drawn) [CBK283412]	128.086%
CCN(CC)C(=O)c1sc2ncccc2c1NS(=O)(=O)c1c(C)noc1C [CBK050617]	87.9602%
CC(NC(=O)C1CCN(Cc2cccnc2)CC1)c1ccc(F)cc1 (stereo not drawn) [CBK148032]	124.072%
Cc1ccc(S(=O)(=O)N2CCN(C(=O)c3ccco3)CC2)cc1 [CBK068166]	124.443%
O=S(=O)(/C=C/c1ccccc1)Nc1cccc2[nH]ccc12 [CBK155772]	92.6216%
COc1ccc(-c2cc(CC3(NCc4ccccc4O)COC3)no2)cc1 [CBK289697]	121.38%
CN1C2CCC1CC(OC(=O)CCN1CCCC1)C2 (stereo not drawn) [CBK261466]	129.36%
Cc1ccc(C(CC(=O)O)NC(=O)c2ccc(C)c(S(=O)(=O)N3CCCCC3)c2)cc1 (stereo not drawn) [CBK297095]	160.934%
COc1cccc2c3c([nH]c12)C1(CCCN(CCc2ccc(F)cc2)C1)NCC3 (stereo not drawn) [CBK039251]	107.69%
O=C(NCc1ccc2c(c1)OCO2)C1(c2ccccc2)CCCC1 [CBK149530]	107.16%

Single values from above:
For % of control remaining, O=S(=O)(/C=C/c1ccccc1)Nc1cccc2[nH]ccc12 [CBK155772] shows 92.6216%
For % of control remaining, Cc1ccc(C(CC(=O)O)NC(=O)c2ccc(C)c(S(=O)(=O)N3CCCCC3)c2)cc1 (stereo not drawn) [CBK297095] shows 160.934%
